Results deposited as PubChem BioAssay AID1259308 (NCATS, 2017).
Here is a random part of about 59,000 deposited reagents. About 1,510 of them (2.6%) count as active. 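Calls use total luciferase alone and ignore viability, so some active siRNAs may act by altering cell number.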 A number with no mark means an inactive call. The numbers tell different reagents against one gene apart. Not all columns of the deposit are shown.

- Aim: 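Knock-downs that increase output of a recombinant reporter protein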 (primary screen)
- System: human HEK293 embryonic kidney cells stably expressing firefly luciferase (HEK-CMV-Luc2-Hygro)
- Reagent: single siRNA against human genes, 0.8 pmol siRNA per well
- Duration: 72 h
- Measurement: 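Reporter luminescence and viable-cell signal on separate replicate plates, given as percent of non-targeting control and median/MAD z-scores, plus per-cell luciferase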
- Reading the numbers: total luciferase, z-score and total luciferase, % of control: higher = more reporter protein produced
- Active means: 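Active when the median/MAD z-score for overall luciferase is greater than 3; a gene was taken forward for validation with new siRNAs if at least two of its three siRNAs passed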
- Meaning of the calls: active = raised luciferase; inactive = no rise

How did the screen score SLC18A1 #1?
total luciferase, z-score: 1.27; total luciferase, % of control: 107

What did the screen give for SLC18A1 #2?
total luciferase, z-score: -1.14; total luciferase, % of control: 59.2

What did the screen give for SLC18A1 #3?
total luciferase, z-score: -0.608; total luciferase, % of control: 69.8

What did the screen give for ARRDC1 #1?
total luciferase, z-score: -0.634; total luciferase, % of control: 69.3

What did the screen give for ARRDC1 #2?
total luciferase, z-score: 0.596; total luciferase, % of control: 93.7

What did the screen give for ARRDC1 #3?
total luciferase, z-score: 0.762; total luciferase, % of control: 97

2 entries already listed, ordered by “total luciferase, % of control”, low to high:
ARRDC1 #1 | total luciferase, z-score = -0.634; total luciferase, % of control = 69.3
SLC18A1 #3 | total luciferase, z-score = -0.608; total luciferase, % of control = 69.8

Next reagents follow.
What did the screen give for XK #1?
total luciferase, z-score: -0.346; total luciferase, % of control: 75

Which result is listed for XK #2?
total luciferase, z-score: -0.236; total luciferase, % of control: 77.2

What did the screen give for XK #3?
total luciferase, z-score: 0.223; total luciferase, % of control: 86.3

With LRP8 #1, how do the results read?
total luciferase, z-score: -1.04; total luciferase, % of control: 61.1

With LRP8 #2, what does the deposit list?
total luciferase, z-score: -0.909; total luciferase, % of control: 63.8

With LRP8 #3, what does the deposit list?
total luciferase, z-score: 1.82; total luciferase, % of control: 118
